Results taken from US8603965B2, “Pharmaceutical composition for the prophylaxis and treatment of HIV infection and its use” (priority 2006, dated 2013).
Entries after “also recorded” stand apart in the source; their conditions may differ. Part of at least one peptide drawing is inferred or uncertain, most often the ends.

Experiments:
[1] = system: HIV; assay: Multidose subcutaneous injection once daily for 14 days in HIV positive patients (Example 4); format: in vivo, human; settings: for Average change of CD4^+ / Average change of VL: HIV infected patients
Procedure: Twenty-one subjects were divided into 5 groups, received pharmaceutical composition containing 1 mg, 5 mg, 10 mg, 20 mg, 30 mg FS-01 once daily, for 14 days. Determined the viral load before injection and after injection.

[2] = system: HIV; assay: Multidose subcutaneous injection once daily for 28 days in HIV positive patients (Example 5); format: in vivo, human
Procedure: Nineteen HIV patients were divided into two groups, were subcutaneously injected with pharmaceutical composition containing 10 mg and 20 mg of FS-01 once daily, for 28 days. The data was analyzed together with that in Example 4.

Ac-SWETWEREIENYTRQIYRILEESQEQQDRNERDLLE-NH2 [FS-01]
CD4^+ cell count (in words) ([1]; 1, 5, 10, 20, 30 mg once daily): improved in each group
viral load (in words) ([1]; 1, 5, 10, 20, 30 mg once daily): decreased in each group
Average change of CD4^+ ([1]; 1 mg once daily s.c.): 30 cells/mm^3
Average change of VL ([1]; 1 mg once daily s.c.): −0.07 log
Average change of CD4^+ ([1]; 5 mg once daily s.c.): 102 cells/mm^3
Average change of VL ([1]; 5 mg once daily s.c.): −0.76 log
Average change of CD4^+ ([1]; 10 mg once daily s.c.): 29 cells/mm^3
Average change of VL ([1]; 10 mg once daily s.c.): −0.47 log
Average change of CD4^+ ([1]; 20 mg once daily s.c.): 46 cells/mm^3
Average change of VL ([1]; 20 mg once daily s.c.): −0.89 log
Average change of CD4^+ ([1]; 30 mg once daily s.c.): 73 cells/mm^3
Average change of VL ([1]; 30 mg once daily s.c.): −0.3 log
plasma viral load (in words) ([2]; 10 mg and 20 mg groups, subcutaneous injection): dropped in each group
CD4^+ cell count (in words) ([2]; 10 mg and 20 mg once daily, four weeks): obviously increased; also recorded: distinct increase
